Measurements published in PMC11132878.
No constants are given. Whether binding was seen depends on the method and setting. Binding seen in cells or lysates may run through a third protein. These calls come from enrichment with a bait or labelling near it, and not all partners need be listed. Tags and fused reporters may be left off the sequences shown.

Sequences of proteins named here, by UniProt entry; tags and fusion partners are left off.
UniProt Q9SZI2: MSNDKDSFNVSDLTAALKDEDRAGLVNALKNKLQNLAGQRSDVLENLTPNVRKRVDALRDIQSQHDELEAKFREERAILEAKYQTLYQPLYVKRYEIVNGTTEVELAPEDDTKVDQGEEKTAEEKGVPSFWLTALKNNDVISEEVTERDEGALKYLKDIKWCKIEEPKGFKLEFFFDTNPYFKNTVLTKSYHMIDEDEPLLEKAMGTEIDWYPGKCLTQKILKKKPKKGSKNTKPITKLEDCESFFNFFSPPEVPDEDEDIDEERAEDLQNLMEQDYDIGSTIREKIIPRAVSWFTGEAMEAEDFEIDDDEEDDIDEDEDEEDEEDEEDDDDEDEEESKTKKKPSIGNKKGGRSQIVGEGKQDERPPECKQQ

T1: MBP–ARP (Arabidopsis APE-redox protein tagged with maltose-binding protein) (Arabidopsis thaliana) (UniProt P45951)
T1 sequence: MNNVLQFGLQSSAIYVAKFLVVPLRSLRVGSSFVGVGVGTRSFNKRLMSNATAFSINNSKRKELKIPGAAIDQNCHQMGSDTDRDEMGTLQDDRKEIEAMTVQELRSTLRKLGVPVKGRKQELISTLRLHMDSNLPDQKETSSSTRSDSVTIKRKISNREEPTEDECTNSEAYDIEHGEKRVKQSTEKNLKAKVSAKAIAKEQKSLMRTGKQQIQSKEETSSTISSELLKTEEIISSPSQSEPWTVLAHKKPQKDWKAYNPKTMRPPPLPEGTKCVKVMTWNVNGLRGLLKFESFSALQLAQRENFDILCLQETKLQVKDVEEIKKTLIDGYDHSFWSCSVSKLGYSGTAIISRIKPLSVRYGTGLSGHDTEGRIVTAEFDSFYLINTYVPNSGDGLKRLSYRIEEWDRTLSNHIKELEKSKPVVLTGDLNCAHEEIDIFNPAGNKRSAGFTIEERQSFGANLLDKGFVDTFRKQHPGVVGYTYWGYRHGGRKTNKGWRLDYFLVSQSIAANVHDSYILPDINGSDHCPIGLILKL


Target: T1, MBP–ARP (Arabidopsis APE-redox protein tagged with maltose-binding protein) (Arabidopsis thaliana)
Experiment: affinity purification with mass spectrometry; MBP–ARP as bait, proteins from Arabidopsis seedlings; MBP as negative control; two biological replicates; only the target purified

| binding | Molecule |
| --- | --- |
| binds | NAP1;1 (endogenous, Arabidopsis seedlings) (from UniProt Q9SZI2 1-372) |
| binds | CHR24 (endogenous, Arabidopsis seedlings) (enzyme, UniProt Q8W103 1-1090) MAENTASHRRKPRSLNDRHYSILQDLSAPPRQPPSSSHGEDEETKKSMIKLAGRRRLCKALPKEDEADGYDDPDLVDFYSPVKGETSLDSAGIGNKFTSWDESKEANTELAGEPNFSIITDFCSPSPQLKQKEEMQGDGGRNEIMGILDDLTSKLGTMSIQKKKDSQSNDFDACGVKSQVDKFDFEDAKSSFSLLSDLSKSSPDVVTTYNAGVNSIKDKQGKSGFAIREEQTSKEFSREWEERISNVGKQNSYSGRHFDDNSEDNRQGYNLDRGKSQCKEVDQSMKTTRHIEVSEKIRTVGRSNAAKLRDLDEDDDDDDCLILSGKKAAEMKINKPARSYNAKRHGYDERSLEDEGSITLTGLNLSYTLPGKIATMLYPHQREGLNWLWSLHTQGKGGILGDDMGLGKTMQICSFLAGLFHSKLIKRALVVAPKTLLPHWMKELATVGLSQMTREYYGTSTKAREYDLHHILQGKGILLTTYDIVRNNTKALQGDDHYTDEDDEDGNKWDYMILDEGHLIKNPNTQRAKSLLEIPSSHRIIISGTPIQNNLKELWALFNFSCPGLLGDKNWFKQNYEHYILRGTDKNATDREQRIGSTVAKNLREHIQPFFLRRLKSEVFGDDGATSKLSKKDEIVVWLRLTACQRQLYEAFLNSEIVLSAFDGSPLAALTILKKICDHPLLLTKRAAEDVLEGMDSTLTQEEAGVAERLAMHIADNVDTDDFQTKNDSISCKLSFIMSLLENLIPEGHRVLIFSQTRKMLNLIQDSLTSNGYSFLRIDGTTKAPDRLKTVEEFQEGHVAPIFLLTSQVGGLGLTLTKADRVIVVDPAWNPSTDNQSVDRAYRIGQTKDVIVYRLMTSATVEEKIYRKQVYKGGLFKTATEHKEQIRYFSQQDLRELFSLPKGGFDVSPTQQQLYEEHYNQIKLDEKLESHVKFLETLGIAGVSHHSLLFSKTAPIQAIQKDEEEQIRRETALLLGRASASISQDTVINGADYAFKPKDVNLDKRINISPVDDKELSESVIKARLNRLTMLLQNKGTVSRLPDGGAKIQKQIAELTRELKDMKAAERINMPQVIDLEEDISRKMQKGLNL |
